This passage reports binding results from publication PMC5727176.

One assay deals with T1, FLAG–JunB (UniProt P09450).
T1 sequence: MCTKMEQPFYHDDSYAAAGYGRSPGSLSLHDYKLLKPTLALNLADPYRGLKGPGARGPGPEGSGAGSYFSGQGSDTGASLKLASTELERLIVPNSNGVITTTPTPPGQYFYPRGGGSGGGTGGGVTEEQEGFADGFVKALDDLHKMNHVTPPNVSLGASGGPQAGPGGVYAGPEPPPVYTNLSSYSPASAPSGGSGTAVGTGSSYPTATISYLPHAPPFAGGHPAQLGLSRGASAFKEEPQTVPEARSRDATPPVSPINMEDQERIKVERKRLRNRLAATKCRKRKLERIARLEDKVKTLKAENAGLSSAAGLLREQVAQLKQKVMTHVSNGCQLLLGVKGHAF
The assay can be described thus: co-IP; HEK293T transfected with pcDNA3 encoding FLAG-tagged Jun family proteins and HA-tagged BATF, 24 h; anti-FLAG (M2) agarose; blot with anti-FLAG and anti-HA.

In assay [1] the target is T2, JunB (construct of the in vitro binding assays) (UniProt P09450).
T2 sequence: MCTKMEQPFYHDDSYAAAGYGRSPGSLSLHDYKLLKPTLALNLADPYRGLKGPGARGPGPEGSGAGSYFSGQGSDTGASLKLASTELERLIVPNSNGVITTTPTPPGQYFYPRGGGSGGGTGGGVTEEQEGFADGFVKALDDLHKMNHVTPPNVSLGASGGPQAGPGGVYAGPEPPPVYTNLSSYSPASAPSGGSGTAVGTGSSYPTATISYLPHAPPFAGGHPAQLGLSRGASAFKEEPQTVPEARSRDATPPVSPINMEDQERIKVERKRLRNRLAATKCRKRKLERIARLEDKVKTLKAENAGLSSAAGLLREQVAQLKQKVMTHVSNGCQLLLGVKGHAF
Description: pull-down; MBP-fusion protein on amylose resin mixed with in vitro translated FLAG-tagged protein; 150 mM NaCl, 5% glycerol, 1 mM DTT, 1 mM EDTA, 25 mM Tris-Cl pH 8.0, 1 h at 4 °C; eluted with 20 mM maltose; anti-FLAG blot; which partner was the MBP fusion is not told; only the target purified.

A further assay addresses T3, FLAG–c-Jun, P05627.
T3 chain: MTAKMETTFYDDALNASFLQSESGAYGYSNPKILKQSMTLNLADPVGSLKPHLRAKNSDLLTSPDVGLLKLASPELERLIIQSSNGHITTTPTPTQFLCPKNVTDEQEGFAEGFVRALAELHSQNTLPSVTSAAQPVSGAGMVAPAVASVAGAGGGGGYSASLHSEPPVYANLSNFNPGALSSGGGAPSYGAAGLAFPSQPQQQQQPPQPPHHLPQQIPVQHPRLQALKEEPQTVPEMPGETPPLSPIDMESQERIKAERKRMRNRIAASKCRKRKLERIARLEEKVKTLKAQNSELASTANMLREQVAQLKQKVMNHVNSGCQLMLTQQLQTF
The assay can be described thus: co-IP; HEK293T transfected with pcDNA3 encoding FLAG-tagged Jun family proteins and HA-tagged BATF, 24 h; anti-FLAG (M2) agarose; blot with anti-FLAG and anti-HA. To be noted: remark: other sources report otherwise.

The next assay deals with T4, FLAG–JunD, P15066.
T4 chain: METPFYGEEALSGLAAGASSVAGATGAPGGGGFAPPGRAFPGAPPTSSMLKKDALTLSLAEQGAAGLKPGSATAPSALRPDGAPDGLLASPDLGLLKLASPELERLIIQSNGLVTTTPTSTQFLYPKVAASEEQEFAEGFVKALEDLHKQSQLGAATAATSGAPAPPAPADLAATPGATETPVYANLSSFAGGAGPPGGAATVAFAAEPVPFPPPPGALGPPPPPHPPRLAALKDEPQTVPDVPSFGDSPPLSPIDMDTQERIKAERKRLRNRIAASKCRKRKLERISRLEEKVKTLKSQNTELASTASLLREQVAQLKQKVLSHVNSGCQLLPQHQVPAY
The assay is described as above. Conditions: remark: other sources report otherwise.

In assay [2] the target is T5, JunD (construct of the in vitro binding assays), P15066.
T5 chain: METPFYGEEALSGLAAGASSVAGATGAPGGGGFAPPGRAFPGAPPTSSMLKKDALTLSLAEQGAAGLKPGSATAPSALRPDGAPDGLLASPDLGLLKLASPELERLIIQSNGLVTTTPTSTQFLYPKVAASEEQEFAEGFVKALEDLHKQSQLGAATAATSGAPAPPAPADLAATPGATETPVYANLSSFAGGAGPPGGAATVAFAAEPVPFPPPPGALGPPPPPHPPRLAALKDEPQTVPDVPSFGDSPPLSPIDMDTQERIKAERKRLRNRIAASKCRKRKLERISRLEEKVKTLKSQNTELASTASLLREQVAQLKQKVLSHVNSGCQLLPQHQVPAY
Description: pull-down; MBP-fusion protein on amylose resin mixed with in vitro translated FLAG-tagged protein; 150 mM NaCl, 5% glycerol, 1 mM DTT, 1 mM EDTA, 25 mM Tris-Cl pH 8.0, 1 h at 4 °C; eluted with 20 mM maltose; anti-FLAG blot; which partner was the MBP fusion is not told; only the target purified. Conditions: remark: other sources report otherwise.

Assay [3] addresses T6, c-Jun (construct of the in vitro binding assays), P05627.
T6 chain: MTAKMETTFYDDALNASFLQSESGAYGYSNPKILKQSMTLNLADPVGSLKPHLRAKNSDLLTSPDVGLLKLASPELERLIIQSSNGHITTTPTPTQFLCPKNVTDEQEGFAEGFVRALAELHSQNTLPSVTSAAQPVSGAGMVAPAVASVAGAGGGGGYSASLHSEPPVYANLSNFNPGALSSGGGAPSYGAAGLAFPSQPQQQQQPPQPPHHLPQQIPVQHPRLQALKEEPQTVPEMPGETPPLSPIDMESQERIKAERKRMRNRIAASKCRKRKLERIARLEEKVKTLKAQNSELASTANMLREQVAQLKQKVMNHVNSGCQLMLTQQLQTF
Described as above. Conditions: remark: other sources report otherwise.

Assay [4] deals with T7, IκBζ (construct of the in vitro binding assays) (UniProt Q9EST8).
T7 sequence: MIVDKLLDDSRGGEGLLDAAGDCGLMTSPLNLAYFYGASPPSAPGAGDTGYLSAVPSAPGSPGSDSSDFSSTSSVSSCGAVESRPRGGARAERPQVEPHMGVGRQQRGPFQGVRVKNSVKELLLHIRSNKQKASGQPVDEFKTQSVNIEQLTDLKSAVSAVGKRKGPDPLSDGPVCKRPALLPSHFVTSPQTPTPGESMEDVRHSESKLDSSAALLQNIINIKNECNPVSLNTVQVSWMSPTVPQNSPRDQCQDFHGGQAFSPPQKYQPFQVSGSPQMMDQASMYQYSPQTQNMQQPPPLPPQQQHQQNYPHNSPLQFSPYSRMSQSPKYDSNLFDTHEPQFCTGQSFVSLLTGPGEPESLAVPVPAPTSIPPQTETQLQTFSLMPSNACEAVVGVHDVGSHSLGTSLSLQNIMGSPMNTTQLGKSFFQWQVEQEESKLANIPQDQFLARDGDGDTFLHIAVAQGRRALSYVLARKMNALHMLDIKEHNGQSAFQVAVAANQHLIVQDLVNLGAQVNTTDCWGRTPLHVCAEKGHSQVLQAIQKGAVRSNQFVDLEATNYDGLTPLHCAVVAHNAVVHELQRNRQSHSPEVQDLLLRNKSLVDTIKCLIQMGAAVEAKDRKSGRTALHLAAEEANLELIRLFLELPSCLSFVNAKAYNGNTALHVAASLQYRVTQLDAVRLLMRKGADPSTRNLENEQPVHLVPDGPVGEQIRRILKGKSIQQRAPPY
Described as above.

Results are given in words; binding and its absence hold for the method and conditions named. In cells and extracts the contact can be indirect. Some binding calls cover weakened binding; strength is not graded here. For some of these results: Tags and fused reporters may be left off the sequences shown.

B1: haemagglutinin (HA)-tagged BATF (protein, UniProt O35284 1-125)
chain: MPHSSDSSDSSFSRSPPPGKQDSSDDVRKVQRREKNRIAAQKSRQRQTQKADTLHLESEDLEKQNAALRKEIKQLTEELKYFTSVLSSHEPLCSVLASGTPSPPEVVYSAHAFHQPHISSPRFQP
As for B1, the binding result in the assay with FLAG–JunB is on record as “binds”.

B2: BATF (construct of the in vitro binding assays) (protein, UniProt O35284 1-125)
chain: MPHSSDSSDSSFSRSPPPGKQDSSDDVRKVQRREKNRIAAQKSRQRQTQKADTLHLESEDLEKQNAALRKEIKQLTEELKYFTSVLSSHEPLCSVLASGTPSPPEVVYSAHAFHQPHISSPRFQP
For the molecule B2, in assay [1], the binding result is recorded as “binds”.

B3: haemagglutinin (HA)-tagged BATF, O35284 1-125 (protein)
chain: MPHSSDSSDSSFSRSPPPGKQDSSDDVRKVQRREKNRIAAQKSRQRQTQKADTLHLESEDLEKQNAALRKEIKQLTEELKYFTSVLSSHEPLCSVLASGTPSPPEVVYSAHAFHQPHISSPRFQP
Turning to B3, the binding entry with FLAG–c-Jun, P05627 was “binds”; with FLAG–JunD, P15066, “binds”.

B4: BATF (construct of the in vitro binding assays), O35284 1-125 (protein)
chain: MPHSSDSSDSSFSRSPPPGKQDSSDDVRKVQRREKNRIAAQKSRQRQTQKADTLHLESEDLEKQNAALRKEIKQLTEELKYFTSVLSSHEPLCSVLASGTPSPPEVVYSAHAFHQPHISSPRFQP
With B4, the binding entry in assay [2] and in assay [3] was “binds” each time.

B5: JunB (construct of the in vitro binding assays) (protein, UniProt P09450 1-344)
chain: MCTKMEQPFYHDDSYAAAGYGRSPGSLSLHDYKLLKPTLALNLADPYRGLKGPGARGPGPEGSGAGSYFSGQGSDTGASLKLASTELERLIVPNSNGVITTTPTPPGQYFYPRGGGSGGGTGGGVTEEQEGFADGFVKALDDLHKMNHVTPPNVSLGASGGPQAGPGGVYAGPEPPPVYTNLSSYSPASAPSGGSGTAVGTGSSYPTATISYLPHAPPFAGGHPAQLGLSRGASAFKEEPQTVPEARSRDATPPVSPINMEDQERIKVERKRLRNRLAATKCRKRKLERIARLEDKVKTLKAENAGLSSAAGLLREQVAQLKQKVMTHVSNGCQLLLGVKGHAF
Turning to B5, the binding result in assay [4] is “binds”.
